# Primary screen of a compound library

From ChEMBL document CHEMBL3988442, “University of Dundee, Small-Polar-MMV Screening Library” (2021).

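Whole-cell growth test on Mycobacterium tuberculosis, read after 3 days in glucose-containing 7H9 medium; the read-out is not stated. Compounds at 50 µM. Higher reads as more growth inhibition (inferred: compounds with an IC50 in retests scored well above the rest). Of about 69,000 compounds tested this way, about 760 (1.1%) reached 50% or more in at least one test.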

Results are given as percent effect. The controls that fix the scale are not given in the record; negative values are as filed. This is an unselected part of the compounds tested. Two or more numbers in one place are separate tests of the same structure; such repeats can differ widely.

SMILES,Percent Effect
C[C@H](NS(C)(=O)=O)C(=O)NCc1cc(-c2ccco2)n(CC(F)(F)F)n1,8.81
O=C(O)C(F)(F)F.O=C(c1c[nH]cn1)N1CCC(F)(F)C2(CCN(c3ncccn3)C2)C1 (stereo not shown),-4.421 and -4.399
Cl.NC(=O)c1ccc(CNC2CC2)cc1,0.5282
CC(C)Nc1nc(N2CCCC2)nc2c1CN(C(C)C)CC2,65.99
COc1c(C2CCCN2Cc2c(C)noc2C)c(C)nn1C (stereo not shown),3.659
Cc1cc(C)c(CNC(=O)N2CCCC2c2ccccc2)c(=O)[nH]1 (stereo not shown),8.57
CC(C)NC(=O)CSc1nc2c(cnn2CCO)c(=O)[nH]1,-16.02
Cc1cccc(CN2CCC3(CCCN(C(=O)N4CCCC4)C3)C2=O)n1.O=C(O)C(F)(F)F (stereo not shown),-15.48 and -37.64
CC(C)N(C)C(=O)C1CCN(Cc2cc3c(cc2O)CCC3)CC1,18.04
Nc1nc(Cn2ccnc2-c2cc(CN3CCCC3)cs2)cs1,-5.333
Cc1cccnc1NC(=O)NC(CCO)C(C)(C)C (stereo not shown),-1.555 and -24.72
[H][C@@]12CCN(C(C)=O)C[C@]1([H])[C@H](C(=O)NCc1ccco1)CCO2,-14.81
Cc1nc(C)n(CC2CCCN(Cc3cccc(F)c3F)C2)n1 (stereo not shown),-34.67 and -0.8001
CC1CCN(S(=O)(=O)N2CCc3c(c(C(=O)O)nn3CC3CC3)C2)CC1,-3.132
Cc1nn(C)c(C)c1C(=O)NN1CCOCC1,2.267
CCn1c(N)nc2cc(C(=O)NCCNc3ncccc3C)cnc21,40.52
Cc1nc(CN2CCN(S(=O)(=O)N3CCOCC3)CC2)oc1C,15.94
CC(C)c1nnc(CNc2nc(-c3cccnc3)nc3c2CCC3)n1C,26.43
N#Cc1ccccc1CN1CCCCC1Cn1cncn1 (stereo not shown),-16.05
Cc1ccc(N(CCC#N)C(=O)CCc2cscn2)cc1C,1.183
O=C(O)C(F)(F)F.O=C(O)C(F)(F)F.[H][C@@]12COC[C@]1(COc1cccnc1)CN(C1CCC1)C2,5.701
Cc1ccc(NC(=O)Nc2cnc(N3CCN(C)CC3)nc2)cc1,-1.81
COc1ncccc1NC(=O)NC1CCCN(c2ncccn2)C1 (stereo not shown),1.753
COCCOCC(=O)NCc1ccc(N(C)C)nc1,23.74
CCN(Cc1ccc2c(c1)OCO2)c1ncc(S(N)(=O)=O)s1,0.8093 and -17.56
Cn1nc(C2CN(C(=O)c3ccncc3)C2)c2nccnc21,-0.6754
CCc1ccc(C(=O)N2CCN(CC(O)c3ccccc3)CC2)o1 (stereo not shown),-10.69 and -1.67
O=C1NCC(C(=O)N(Cc2ccc(C(F)(F)F)cc2)C2CC2)N1 (stereo not shown),-43.84
O=C(O)[C@@H]1CN(CC2CCC2)C[C@H]1c1ccc(F)cc1,7.158
CNC(=O)c1cc2c(nc1NCC1CC1)CCN(c1ccncn1)CC2.O=C(O)C(F)(F)F,18.89
O=C(NCC1(C(=O)O)CCC1)c1nnn(-c2ccc(F)cc2)c1C1CC1,-11.21 and -23.12
COc1ccc2c(c1)C(=O)NC1(CC2)CCN(Cc2cccnc2)C1 (stereo not shown),16.3
CCC(=O)N1CCC2(CC1)CC(NC(=O)N(C)C)c1cc(C)ccc12 (stereo not shown),-4.657
CSc1nc2ccsc2c(=O)n1CC(=O)NC1CCCCC1,20.43
Cc1cc(C)n(CC2CCCN2C(=O)c2c[nH]c3ncccc23)n1 (stereo not shown),-15.69
O=C(O)C(F)(F)F.[H][C@@]12CN(C(=O)c3ccsc3)C[C@]1([H])OCCN2C(C)C,-0.799
Cc1nc(CCNC2CCN(Cc3ccccc3)C2)sc1C (stereo not shown),9.596
O=C(CSC1=NS(=O)(=O)c2cc(F)ccc2N1)Nc1ccc(Cl)c(Cl)c1,6.49
CN1CCN(Cc2cnc3n2CCN(C(=O)c2cscn2)C3)CC1,-23.66
CC(C)Nc1nc(O)cc(C2CC(=O)N(Cc3ccccc3)C2)n1 (stereo not shown),4.093
Cc1cc(C)n(CC(C)CNC(=O)[C@@H](C)NC(=O)OC(C)(C)C)n1 (stereo partly shown),8.928 and 0.893
COCCNC(=O)CN(C)CCn1nc2ccccn2c1=O,4.307
Cc1nn(C)c(C)c1CN(C)C(=O)c1cc(C(F)(F)F)n(C)n1,20.07
CSC(C)(C)CNC(=O)NC1CCN(CC2CC2)C1 (stereo not shown),1.627
Cc1nc2c(NCC(C)N(C)c3ccccc3)ncnc2o1 (stereo not shown),28.75
CC(NC(=O)c1cc(-c2cccc(Cl)c2)no1)C(=O)N1CCCC1 (stereo not shown),4.704 and 8.204
Nc1cc(-c2c[nH]nc2C2CCCN2S(=O)(=O)c2ccccc2)ccn1 (stereo not shown),20.46
CCc1noc(CNc2cc3c(cc2Cl)OCCO3)n1,29.13 and 63.6
Cc1cc(C)nc(Nc2cc(C)nc(C3CCN(C(=O)CO)C3)n2)n1 (stereo not shown),3.691
CC(C)C(=O)N1CCc2onc(C(=O)NCCN(C)C)c2C1.O=C(O)C(F)(F)F,-2.723 and 25.67
CC(NC(=O)C(C)(C)C#N)c1ccc(OCC2CC2)c(F)c1 (stereo not shown),-9.693
Cc1cccn2cc(CC(=O)N(CCN(C)C)CC3CCCO3)nc12 (stereo not shown),-45.99
CC(=O)N1CC[C@H](c2nc3cc(C)ccc3o2)C1,9.686 and -1.698
O=S1(=O)CCC(S(=O)(=O)c2cccc(S(=O)(=O)N3CCOCC3)c2)C1 (stereo not shown),-20.18
Cc1nc(C)n(C2CCCN(C(=O)c3ncoc3C(C)C)C2)n1 (stereo not shown),12.85
O=C(NC1CC1)c1cc(NC(=O)N2CCCC2)ccc1Cl,-25.8
Cc1nc(C)n(C2CCCN(C(=O)c3cc4ccccc4n3C)C2)n1 (stereo not shown),30.63
CC(C)OC(=O)N1CCCC2(CCC(=O)N(CCc3c[nH]cn3)C2)C1 (stereo not shown),-0.4834 and -24.39
O=C(c1cnccn1)N1CCc2ncc(CN3CCOCC3)n2CC1,-23.03
CC(C)c1noc(C(C)N2CCN(Cc3ccccc3C#N)CC2)n1 (stereo not shown),7.755
CN1CCCN(C(=O)c2cc(CN(C)CCc3ccccc3)on2)CC1,4.282
O=C(NC1(C(=O)O)CCCC1)C1Cc2cc(F)ccc2O1 (stereo not shown),-20.7
CC1CCCN(S(=O)(=O)NCc2ccccc2Cn2cncn2)C1 (stereo not shown),-7.688
CNc1snc(C)c1C(=O)N1CCC(Nc2ccc(C)nn2)CC1,3.297
COc1cccc(CN(C)CC(=O)NC2(C)CCS(=O)(=O)C2)c1 (stereo not shown),-7.406
OCC(O)CSCc1ccc(F)cc1Cl (stereo not shown),10.46
Cc1ncc(CO)c(CN2CCCC2c2nc3c(C)cccc3[nH]2)c1O (stereo not shown),-14.51
CC(C)Cc1noc(CN2CCCN(C(=O)c3cccc(Cl)c3)CC2)n1,4.871
CCCn1cc(C(=O)NCCS(N)(=O)=O)c2ccccc21,-43.18
COc1ccc(-c2cc3nc(CCNC(=O)C4CC4)nn3cn2)cc1,14.38
Cc1cnn(CC2CCCN2Cc2noc(C(C)C)n2)c1 (stereo not shown),-4.135
O=c1[nH]cc(N2CCCCC2)c(=O)[nH]1,-13.74
Cc1noc(C)c1CN(Cc1cccnc1)C1CN2CCC1CC2 (stereo not shown),-48.06
O=C(NCC(O)c1ccc(F)cc1F)c1ccccc1 (stereo not shown),-20.17
COc1ccc(-c2noc(CN3CCOCC3C)n2)cc1OC (stereo not shown),20.11
Cc1noc(NS(=O)(=O)c2ccc(Cl)s2)c1C,-1.128
CCC(=O)N1CCCCC1c1nc(O)c2c(n1)CN(C(=O)C1CC1)CC2 (stereo not shown),-5.062
[H][C@]12CCC[C@@]1(COC)CN(C(=O)COc1ccccc1OC)C2,27.68
COc1ccc(C2=C(C)C(N3CCc4ccccc43)=NS2(=O)=O)cc1,10.13

The first 8 entries again:

| SMILES | Percent Effect |
|---|---|
| `C[C@H](NS(C)(=O)=O)C(=O)NCc1cc(-c2ccco2)n(CC(F)(F)F)n1` | 8.81 |
| `O=C(O)C(F)(F)F.O=C(c1c[nH]cn1)N1CCC(F)(F)C2(CCN(c3ncccn3)C2)C1` (stereo not shown) | -4.421 and -4.399 |
| `Cl.NC(=O)c1ccc(CNC2CC2)cc1` | 0.5282 |
| `CC(C)Nc1nc(N2CCCC2)nc2c1CN(C(C)C)CC2` | 65.99 |
| `COc1c(C2CCCN2Cc2c(C)noc2C)c(C)nn1C` (stereo not shown) | 3.659 |
| `Cc1cc(C)c(CNC(=O)N2CCCC2c2ccccc2)c(=O)[nH]1` (stereo not shown) | 8.57 |
| `CC(C)NC(=O)CSc1nc2c(cnn2CCO)c(=O)[nH]1` | -16.02 |
| `Cc1cccc(CN2CCC3(CCCN(C(=O)N4CCCC4)C3)C2=O)n1.O=C(O)C(F)(F)F` (stereo not shown) | -15.48 and -37.64 |